Assay results published in US8148089B2, “Alpha-synuclein kinase” (Elan Pharma International Limited, priority 2006, dated 2012).

Experiments:
endogenous kinase (293) = assay: Synuclein phosphorylation by endogenous kinase in HEK-293 cells (synuclein + vector); type: cell-based, human
Description: All vectors had the sequence coding for the protein of interest. Transfection was accomplished using Lipofectamine 2000 (Invitrogen, Carlsbad, Calif.) with 0.08 μg vector. Cells were washed and harvested 48 hours post-transfection. A Micro BCA (Pierce) total protein assay and total synuclein and phospho-synuclein ELISAs were performed on each plate of treated cells.

[1] = tested on: synuclein phosphorylation in the cellular paradigms tested; assay: Inhibition of synuclein phosphorylation, several cellular paradigms; type: cell-based; conditions: in any of the cells or in the in vitro assay

For `CO[C@@H]1[C@H](N(C)C(=O)c2ccccc2)C[C@H]2O[C@]1(C)n1c3ccccc3c3c4c(c5c6ccccc6n2c5c31)C(=O)NC4` [N-Benzoyl Staurosporine, N-benzoyl staurosporine], the EC50 (endogenous kinase (293)) was over 100 µM and the “inhibition of 50% of synuclein phosphorylation” value [1] was “did not inhibit 50% of synuclein phosphorylation”.
